Measurements published in patent US20250134019A1, “TRIKETONE DIOXYGENASE VARIANTS FOR HERBICIDE TOLERANCE” (Monsanto Technology LLC, priority 2022, published 2025).

Tested on: transgenic cotton plants
Assay: Effect of heat treatment on TDO protein accumulation in cotton plants (ELISA)
Format: in vivo
Settings: for TDO Protein Level (ppm Dry Weight), 7 Days After Mesotrione Spray (100° F.) / TDO Protein Level (ppm Dry Weight), 7 Days After Mesotrione Spray (80° F.): 2X mesotrione (210 g a.i./ha)
Procedure: Cotton is a crop of interest that is often exposed to high temperature growing conditions and thus, selected TDO variants were tested in cotton. Three TDO variants, D08, TDO_6, and TDO_8 were transformed into cotton (along with the Os.TDO control) using similar expression elements in single-cassette vectors or as part of multi-cassette vectors. R2 transgenic cotton plants were then screened for tolerance to mesotrione. Sixteen plants from two events each per construct were sprayed with two rates (2X and 8X) of mesotrione at V3 stage under normal (80° F.) and hot (100° F.) growing conditions. In addition, the effect of heat treatment on TDO accumulation in cotton plants were measured by ELISA. Cotton plants were planted and grown under normal greenhouse conditions (80° F. day/70° F. night) until V3 growth stage. Half of the plants were then moved to a higher temperature growth chamber (100° F. day/82° F. night) for the heat treatment, whereas the remaining half of the plants stayed in the same greenhouse (80° F. day/70° F. night). At day 3 after the plants were placed under different temperature conditions, leaf samples were collected for TDO protein measurement. The plants in 100° F. growth chamber and in 80° F. greenhouse were both sprayed with 2X mesotrione (210 g a.i./ha). Leaf samples were collected again 7 days after mesotrione treatment (DAT: Days After Treatment) for protein assay. Table 5 compares protein levels of the TDO variants in transgenic cotton plants grown under the two tested conditions. The protein levels for the TDO variants were measured at three time points for plants: 1) just before entering the high temperature treatment, 2) three days following placement into control (normal growth temperature) or high temperature (100° F.), and 3) 7 days after a 2X mesotrione spray.

[1] = Growth Temperature: 80° F. > 100° F.
[2] = Growth Temperature: 80° F. > 100° F., before entering high temperature

B1: Os.TDO: TDO from Oryza sativa (HIS1), SEQ ID NO:2, polynucleotide codon optimized for dicot expression (protein, listed as Oryza sativa)
chain: MADESWRAPAIVQELAAAGVEEPPSRYLLREKDRSDVKLVAAELPEPLPVVDLSRLDGAEEATKLRVALQNWGFFLLTNHGVEASLMDSVMNLSREFFNQPIERKQKFSNLIDGKNFQIQGYGTDRVVTQDQILDWSDRLHLRVEPKEEQDLAFWPDHPESFRDVLNKYASGTKRIRDDIIQAMAKLLELDEDYFLDRLNEAPAFARFNYYPPCPRPDLVFGIRPHSDGTLLTILLVDKDVSGLQVQRDGKWSNVEATPHTLLINLGDTMEVMCNGIFRSPVHRVVTNAEKERISLAMLYSVNDEKDIEPAAGLLDENRPARYRKVSVEEFRAGIFGKFSRGERYIDSLRI
- TDO Protein Level (ppm Dry Weight), 3 Days Before Mesotrione Spray (80° F.) (Growth Temperature: 80° F.): 34 ppm Dry Weight and 50.9 ppm Dry Weight
- TDO Protein Level (ppm Dry Weight), At V3 Stage (80° F.) (Growth Temperature: 80° F.): 41 ppm Dry Weight and 55.4 ppm Dry Weight
- TDO Protein Level (ppm Dry Weight), 3 Days Before Mesotrione Spray (100° F.) [1]: 18.9 ppm Dry Weight and 27.5 ppm Dry Weight
- TDO Protein Level (ppm Dry Weight), 7 Days After Mesotrione Spray (100° F.) [1]: 14.8 ppm Dry Weight and 24.9 ppm Dry Weight
- TDO Protein Level (ppm Dry Weight), At V3 Stage (80° F.) [2]: 42.5 ppm Dry Weight and 59.3 ppm Dry Weight
- TDO Protein Level (ppm Dry Weight), 7 Days After Mesotrione Spray (80° F.) (Growth Temperature: 80° F.): 26.4 ppm Dry Weight and 41.5 ppm Dry Weight
- TDO protein levels in high temperature treatment relative to normal conditions (cotton, 100° F. vs 80° F.): reduction in TDO protein levels

B2: D08: Os.TDO variant D08, SEQ ID NO:18, 20 amino acid changes relative to Os.TDO (protein)
chain: MADESWRAPALVQELAAKGVEEPPSRYLLREQDRPDVKLVAAELPEPIPVVDLGRLDGAEEATKLRVALQNWGFFLLTNHGIEASLMDDVMNLSREFFNQPIERKQKFSNLIDGKHFQIEGYGTDRVVTQDQVLDWSDRLHLRVEPKEEQDLAFWPDHPESFRDVLHKYASGCKRIRDDIIQAMAKLLELDEDYFLDRFNEAPTFARFNYYPPCPRPDLVFGIRPHSDGGLLTILLVDKDVGGLQVQRDGKWSNVPATPHTLLINLGDTMEVMSNGIFKSPVHRVVTNAEKERISLAMLYSVNDEKDIEPAAGLLDENRPARYRKVSVEEFRAGIFGKFSRGERYIDSLRI
modifications: TDO variant sequence
- TDO Protein Level (ppm Dry Weight), 3 Days Before Mesotrione Spray (80° F.) (Growth Temperature: 80° F.): 67.5 ppm Dry Weight and 89.1 ppm Dry Weight
- TDO Protein Level (ppm Dry Weight), At V3 Stage (80° F.) (Growth Temperature: 80° F.): 65.1 ppm Dry Weight and 93.3 ppm Dry Weight
- TDO Protein Level (ppm Dry Weight), 3 Days Before Mesotrione Spray (100° F.) [1]: 59.8 ppm Dry Weight and 92 ppm Dry Weight
- TDO Protein Level (ppm Dry Weight), 7 Days After Mesotrione Spray (100° F.) [1]: 49.6 ppm Dry Weight and 89.7 ppm Dry Weight
- TDO Protein Level (ppm Dry Weight), At V3 Stage (80° F.) [2]: 62.2 ppm Dry Weight and 85.8 ppm Dry Weight
- TDO Protein Level (ppm Dry Weight), 7 Days After Mesotrione Spray (80° F.) (Growth Temperature: 80° F.): 49 ppm Dry Weight and 75 ppm Dry Weight

B3: TDO_8: Os.TDO variant, SEQ ID NO:42, Q32K-I48L-V133I-G242S-P256E relative to D08 (protein)
chain: MADESWRAPALVQELAAKGVEEPPSRYLLREKDRPDVKLVAAELPEPLPVVDLGRLDGAEEATKLRVALQNWGFFLLTNHGIEASLMDDVMNLSREFFNQPIERKQKFSNLIDGKHFQIEGYGTDRVVTQDQILDWSDRLHLRVEPKEEQDLAFWPDHPESFRDVLHKYASGCKRIRDDIIQAMAKLLELDEDYFLDRFNEAPTFARFNYYPPCPRPDLVFGIRPHSDGGLLTILLVDKDVSGLQVQRDGKWSNVEATPHTLLINLGDTMEVMSNGIFKSPVHRVVTNAEKERISLAMLYSVNDEKDIEPAAGLLDENRPARYRKVSVEEFRAGIFGKFSRGERYIDSLRI
modifications: TDO variant sequence
- TDO Protein Level (ppm Dry Weight), 3 Days Before Mesotrione Spray (80° F.) (Growth Temperature: 80° F.): 55.5 ppm Dry Weight
- TDO Protein Level (ppm Dry Weight), At V3 Stage (80° F.) (Growth Temperature: 80° F.): 53.3 ppm Dry Weight
- TDO Protein Level (ppm Dry Weight), 3 Days Before Mesotrione Spray (100° F.) [1]: 60 ppm Dry Weight
- TDO Protein Level (ppm Dry Weight), 7 Days After Mesotrione Spray (100° F.) [1]: 48.9 ppm Dry Weight
- TDO Protein Level (ppm Dry Weight), At V3 Stage (80° F.) [2]: 55.2 ppm Dry Weight
- TDO Protein Level (ppm Dry Weight), 7 Days After Mesotrione Spray (80° F.) (Growth Temperature: 80° F.): 45.4 ppm Dry Weight

B4: TDO_6: Os.TDO variant, SEQ ID NO:38, G242S-P256E relative to D08 (protein)
chain: MADESWRAPALVQELAAKGVEEPPSRYLLREQDRPDVKLVAAELPEPIPVVDLGRLDGAEEATKLRVALQNWGFFLLTNHGIEASLMDDVMNLSREFFNQPIERKQKFSNLIDGKHFQIEGYGTDRVVTQDQVLDWSDRLHLRVEPKEEQDLAFWPDHPESFRDVLHKYASGCKRIRDDIIQAMAKLLELDEDYFLDRFNEAPTFARFNYYPPCPRPDLVFGIRPHSDGGLLTILLVDKDVSGLQVQRDGKWSNVEATPHTLLINLGDTMEVMSNGIFKSPVHRVVTNAEKERISLAMLYSVNDEKDIEPAAGLLDENRPARYRKVSVEEFRAGIFGKFSRGERYIDSLRI
modifications: TDO variant sequence
- TDO Protein Level (ppm Dry Weight), 3 Days Before Mesotrione Spray (80° F.) (Growth Temperature: 80° F.): 57.3 ppm Dry Weight
- TDO Protein Level (ppm Dry Weight), At V3 Stage (80° F.) (Growth Temperature: 80° F.): 51 ppm Dry Weight
- TDO Protein Level (ppm Dry Weight), 3 Days Before Mesotrione Spray (100° F.) [1]: 58.8 ppm Dry Weight
- TDO Protein Level (ppm Dry Weight), 7 Days After Mesotrione Spray (100° F.) [1]: 54.2 ppm Dry Weight
- TDO Protein Level (ppm Dry Weight), At V3 Stage (80° F.) [2]: 50.5 ppm Dry Weight
- TDO Protein Level (ppm Dry Weight), 7 Days After Mesotrione Spray (80° F.) (Growth Temperature: 80° F.): 34.3 ppm Dry Weight

Several values for one entry are separate records, joined by “and”; a condition that tells them apart may be missing. Equal entries are not always repeated.
